{
  "source": "patent US6407239B1",
  "about": "“Aromatic esters of camptothecins and methods to treat cancers” (priority 1999, dated 2002)",
  "origin": "cited, not measured here",
  "conditions": "cited from earlier work",
  "data": [
    {"smiles": "CC[C@@]1(O)C(=O)OCc2c1cc1n(c2=O)Cc2cc3ccccc3nc2-1", "note": "[Camptothecin]", "values": [
      {"measurement": "solubility in water", "value": "insoluble in water"}
    ]}
  ]
}
